Results published in PMC9344665.
Residue numbers refer to the chain shown, from its start. No constants are given. Whether binding was seen depends on the method and setting. Some results given as binding are weak or reduced against the parent protein; the word gives no strength. Sequences can lack the tags named with a protein.

How the values were obtained:
Experiment in all cases: co-purification of coexpressed proteins (Ni-NTA, heparin, size-exclusion chromatography); His6-FARSA and untagged FARSB coexpressed in E. coli Rosetta (DE3); lysate on Ni-NTA (20 mM Tris-HCl pH 8.5, 500 mM NaCl), His6-tag removed with HRV3C, HiTrap Heparin HP with a NaCl gradient, then SEC in 20 mM HEPES-NaOH pH 7.5, 150 mM NaCl; SDS-PAGE of fractions
[1] = molecular target: T1, FARSA F277V variant (human) (UniProt Q9Y285)
T1 sequence: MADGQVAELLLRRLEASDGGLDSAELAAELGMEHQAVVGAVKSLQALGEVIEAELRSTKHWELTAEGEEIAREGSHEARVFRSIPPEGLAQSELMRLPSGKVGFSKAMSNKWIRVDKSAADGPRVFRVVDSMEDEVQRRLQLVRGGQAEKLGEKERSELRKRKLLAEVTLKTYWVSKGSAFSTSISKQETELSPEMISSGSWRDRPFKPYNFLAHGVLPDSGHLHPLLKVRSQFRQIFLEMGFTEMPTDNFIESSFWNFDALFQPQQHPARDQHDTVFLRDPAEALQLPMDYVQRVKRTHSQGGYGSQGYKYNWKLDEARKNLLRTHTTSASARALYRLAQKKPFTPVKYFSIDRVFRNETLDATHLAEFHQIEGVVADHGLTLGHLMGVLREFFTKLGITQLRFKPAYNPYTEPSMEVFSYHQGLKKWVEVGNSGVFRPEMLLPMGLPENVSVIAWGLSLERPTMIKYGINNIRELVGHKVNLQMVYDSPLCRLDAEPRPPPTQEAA

[2] = molecular target: T2, FARSA F256L variant (human) (UniProt Q9Y285)
T2 sequence: T1 sequence with F256L, V277F

[3] = molecular target: T3, FARSA E418D variant (human) (UniProt Q9Y285)
T3 sequence: T1 sequence with V277F, E418D

[4] = molecular target: T4, wild-type FARSA (α subunit of cytosolic phenylalanyl-tRNA synthetase FARS1) (human) (UniProt Q9Y285)
T4 sequence: T1 sequence with V277F

Measured: binding

B1: FARSB (β subunit of cytosolic phenylalanyl-tRNA synthetase FARS1), no affinity tag (enzyme, UniProt Q9NSD9 1-584)
chain: MPTVSVKRDLLFQALGRTYTDEEFDELCFEFGLELDEITSEKEIISKEQGNVKAAGASDVVLYKIDVPANRYDLLCLEGLVRGLQVFKERIKAPVYKRVMPDGKIQKLIITEETAKIRPFAVAAVLRNIKFTKDRYDSFIELQEKLHQNICRKRALVAIGTHDLDTLSGPFTYTAKRPSDIKFKPLNKTKEYTACELMNIYKTDNHLKHYLHIIENKPLYPVIYDSNGVVLSMPPIINGDHSRITVNTRNIFIECTGTDFTKAKIVLDIIVTMFSEYCENQFTVEAAEVVFPNGKSHTFPELAYRKEMVRADLINKKVGIRETPENLAKLLTRMYLKSEVIGDGNQIEIEIPPTRADIIHACDIVEDAAIAYGYNNIQMTLPKTYTIANQFPLNKLTELLRHDMAAAGFTEALTFALCSQEDIADKLGVDISATKAVHISNPKTAEFQVARTTLLPGLLKTIAANRKMPLPLKLFEISDIVIKDSNTDVGAKNYRHLCAVYYNKNPGFEIIHGLLDRIMQLLDVPPGEDKGGYVIKASEGPAFFPGRCAEIFARGQSVGKLGVLHPDVITKFELTMPCSSLEIN
binds: all assays above
